Data as given in PubChem BioAssay AID1159579 (Peter MacCallum Cancer Centre, 2015).
The deposit covers about 2,000 reagents; below is an unselected part. 549 of all reagents (27%) were called active. 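Some migration ratios are negative; siRNAs with too few cells are inactive whatever their migration ratio.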 Reagents against one gene are numbered here. Further read-outs or replicates are left out here. Not stated in the record: the time to read-out.

Purpose: 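Follow-up screen seeking modulators of motility in lymphatic endothelial cells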 (follow-up of hits)
Cells: human dermal lymphatic endothelial cells
Reagent: single siRNA against human genes, 25 nM
Read-out: 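Scratch wound imaging measuring area filled by moving cells plus nuclei number, averaged over two wells and scaled to mock-transfected controls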
Direction: migration relative to mock: higher = more migration into the scratch; mean nuclei count: higher = more cells remaining
Call rule: 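Called active when the migration ratio is 0.6 or lower (impaired) or 1.3 or higher (accelerated), but inactive whenever the mean nuclei count falls under 3300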
Calls: active = migration changed (impaired or accelerated); inactive = no migration change, or too few cells

How did the screen score GJB6 #1?
migration relative to mock: 0.8; mean nuclei count: 6190; outcome: inactive

What did the screen give for GJB6 #2?
migration relative to mock: 0.26; mean nuclei count: 5564; outcome: active

What is on record for GJB6 #3?
migration relative to mock: 0.97; mean nuclei count: 6310; outcome: inactive

For GJB6 #4, how do the results read?
migration relative to mock: 0.72; mean nuclei count: 4870; outcome: inactive

How did the screen score SLITRK1 #1?
migration relative to mock: 0.94; mean nuclei count: 4654; outcome: inactive

For SLITRK1 #2, what does the deposit list?
migration relative to mock: 0.74; mean nuclei count: 5875; outcome: inactive

Which result is listed for SLITRK1 #3?
migration relative to mock: 1; mean nuclei count: 6234; outcome: inactive

How did the screen score SLITRK1 #4?
migration relative to mock: 0.12; mean nuclei count: 4002; outcome: active

Which result is listed for CCND2 #1?
migration relative to mock: 0.94; mean nuclei count: 5046; outcome: inactive

With CCND2 #2, what was measured?
migration relative to mock: 1.19; mean nuclei count: 5614; outcome: inactive

For CCND2 #3, what does the deposit list?
migration relative to mock: 0.8; mean nuclei count: 6613; outcome: inactive

For CCND2 #4, how do the results read?
migration relative to mock: 0.64; mean nuclei count: 5463; outcome: inactive

For ARB2A #1, what was measured?
migration relative to mock: 1.09; mean nuclei count: 6332; outcome: inactive

With ARB2A #2, what does the deposit list?
migration relative to mock: 1.14; mean nuclei count: 5714; outcome: inactive

With ARB2A #3, what was measured?
migration relative to mock: 0.35; mean nuclei count: 3802; outcome: active

For ARB2A #4, what does the deposit list?
migration relative to mock: 1.03; mean nuclei count: 5422; outcome: inactive

2 of these entries in another layout:
gene | reagent | migration relative to mock | mean nuclei count | outcome
SLITRK1 | 1 | 0.94 | 4654 | inactive
SLITRK1 | 2 | 0.74 | 5875 | inactive
